Data taken from PubChem BioAssay AID2417 (National Center for Advancing Translational Sciences (NCATS), 2010).
In all, about 140,000 compounds went through this assay and about 4,300 (3.1%) were called active. Inconclusive means that the source gave no clear call. Such entries were picked first, then a sample of the others.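 The calls were made as follows: active = readout at or below -70, meaning at least 70% loss of cells showing the perinucleolar compartment, a nuclear body marking cancer cells; inconclusive = readout between -30 and a set limit; inactive = the rest.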

assay: High Content Assay for Compounds that inhibit the Assembly of the Perinucleolar Compartment; conditions: PC3M PTB-GFP, PNC prevalence imaging, 16 h; at 10 µM; active compounds read low;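 also: plate controls were DMSO wells for no effect and camptothecin positive control wells for full effect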
Procedure, shortened: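 Read-out is percentage of cells bearing a perinucleolar compartment, from automated 20x imaging of fixed, Hoechst-stained PC3M PTB-GFP cells. Cells were seeded 4 h, then exposed 16 h to compound (23 nl of library stock) in duplicate plates.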

SMILES | activity change (PNC), negative = inhibition
CN(C)CCCNC(=O)c1ccc(-c2nc(-c3ccc(Cl)cc3)cs2)cc1 | inactive: -22.4%
NC(=O)CSc1nc2ccccc2n1Cc1ccccc1 | inconclusive: -49.8%
CCOC(=O)N1CCN(CC(=O)Nc2ccc(C)cc2)CC1 | inactive: -7.55%
CC(/C=N/n1c(-c2ccco2)n[nH]c1=S)=C\c1ccccc1 | inconclusive: -40.1%
COc1ccc(C2SCCN2C(=S)Nc2cccc(Cl)c2)cc1 (configuration not stated) | active: -102%
COC(=O)CN(n1cnnc1)S(=O)(=O)c1ccccc1Cl | inconclusive: -46.6%
O=C(Nc1ccc2oc(-c3ccncc3)nc2c1)c1cccs1 | inconclusive: -31.2%
CC(C)CNC(=O)c1cccc(NC(=O)CSc2ccc(Cl)cc2)c1 | inconclusive: -33.2%
Cc1ccc(NC(=O)c2ccc3c(c2)OCCO3)cc1 | inconclusive: -37%
Cc1ccc2c(c1)C1CCCC3C1N2CC(=O)N3Cc1ccccc1 (configuration not stated) | inconclusive: -44.7%
CCCc1cc(-c2n[nH]c(=S)n2C(C)c2ccccc2)cs1 (configuration not stated) | inactive: 28.2%
COC(=O)CCCC[C@@H]1SC[C@@H](NC(=O)OC)[C@@H]1NC(=O)OC | inactive: 0.544%
Cc1cc(=O)oc2cc(OCC(=O)NCc3ccncc3)ccc12 | inconclusive: -55.3%
Cc1ccc2nsnc2c1NC(=O)c1sc2ccccc2c1Cl | inconclusive: -41.8%
Cc1ccc(/C=C(/NC(=O)c2ccccc2)C(=O)NCCc2c[nH]c3ccccc23)o1 | inactive: -28.5%
COC(=O)c1[nH]c2cccc(OC)c2c1NC(=O)CCN1CC(C)CC(C)C1 (configuration not stated) | inconclusive: -30.1%
CCCc1cc(N2CCCC(C(=O)Nc3ccc(OC)cc3OC)C2)n2ncnc2n1 (configuration not stated) | inactive: 26.9%
O=c1c(-c2ccc(O)cc2)coc2cc(OC3OC(CO)C(O)C(O)C3O)cc(O)c12 (configuration not stated) | inactive: -22.5%
FC(F)(F)c1nc(N2CCCC2)ncc1-c1nnnn1-c1ccc(Cl)cc1 | inactive: -25.4%
CCN(CC)S(=O)(=O)c1ccc(C(=O)Nc2cccc(C)c2)cc1 | inconclusive: -49.2%
Cc1cc(C)cc(NS(=O)(=O)c2ccc3c(c2)c(=O)n(C)c(=O)n3C)c1 | inconclusive: -30.6%
COC(=O)c1ccc(CN2CCN(Cc3ccc(C(=O)OC)o3)CC2)o1 | inactive: 40%
c1ccc(N2CCCCC2)c(NC2=NCCC2)c1 | inconclusive: -41.6%

Some of the entries so far, as a markdown table:

| SMILES | activity change (PNC), negative = inhibition |
| --- | --- |
| CN(C)CCCNC(=O)c1ccc(-c2nc(-c3ccc(Cl)cc3)cs2)cc1 | inactive: -22.4% |
| NC(=O)CSc1nc2ccccc2n1Cc1ccccc1 | inconclusive: -49.8% |
| CCOC(=O)N1CCN(CC(=O)Nc2ccc(C)cc2)CC1 | inactive: -7.55% |
| CC(/C=N/n1c(-c2ccco2)n[nH]c1=S)=C\c1ccccc1 | inconclusive: -40.1% |
| COc1ccc(C2SCCN2C(=S)Nc2cccc(Cl)c2)cc1 (configuration not stated) | active: -102% |
| COC(=O)CN(n1cnnc1)S(=O)(=O)c1ccccc1Cl | inconclusive: -46.6% |
| O=C(Nc1ccc2oc(-c3ccncc3)nc2c1)c1cccs1 | inconclusive: -31.2% |
| Cc1ccc(NC(=O)c2ccc3c(c2)OCCO3)cc1 | inconclusive: -37% |
| Cc1ccc2c(c1)C1CCCC3C1N2CC(=O)N3Cc1ccccc1 (configuration not stated) | inconclusive: -44.7% |
| CCCc1cc(-c2n[nH]c(=S)n2C(C)c2ccccc2)cs1 (configuration not stated) | inactive: 28.2% |
| COC(=O)CCCC[C@@H]1SC[C@@H](NC(=O)OC)[C@@H]1NC(=O)OC | inactive: 0.544% |
| Cc1cc(=O)oc2cc(OCC(=O)NCc3ccncc3)ccc12 | inconclusive: -55.3% |
| Cc1ccc2nsnc2c1NC(=O)c1sc2ccccc2c1Cl | inconclusive: -41.8% |
| COC(=O)c1[nH]c2cccc(OC)c2c1NC(=O)CCN1CC(C)CC(C)C1 (configuration not stated) | inconclusive: -30.1% |
| CCCc1cc(N2CCCC(C(=O)Nc3ccc(OC)cc3OC)C2)n2ncnc2n1 (configuration not stated) | inactive: 26.9% |
| O=c1c(-c2ccc(O)cc2)coc2cc(OC3OC(CO)C(O)C(O)C3O)cc(O)c12 (configuration not stated) | inactive: -22.5% |
| FC(F)(F)c1nc(N2CCCC2)ncc1-c1nnnn1-c1ccc(Cl)cc1 | inactive: -25.4% |
| CCN(CC)S(=O)(=O)c1ccc(C(=O)Nc2cccc(C)c2)cc1 | inconclusive: -49.2% |
| Cc1cc(C)cc(NS(=O)(=O)c2ccc3c(c2)c(=O)n(C)c(=O)n3C)c1 | inconclusive: -30.6% |
| COC(=O)c1ccc(CN2CCN(Cc3ccc(C(=O)OC)o3)CC2)o1 | inactive: 40% |
| c1ccc(N2CCCCC2)c(NC2=NCCC2)c1 | inconclusive: -41.6% |

(list continues)

SMILES | activity change (PNC), negative = inhibition
CCN(CC)c1ccc(NC(=O)CN2CCN(CC(=O)Nc3ccc(F)cc3)CC2)cc1 | inactive: 8.68%
c1ccc(-c2nnc(CSc3nc4ccccc4[nH]3)o2)cc1 | inconclusive: -40.8%
COc1ccc(C(=O)CSc2ccc(-c3ccco3)nn2)cc1 | inconclusive: -47.5%
O=[N+]([O-])c1ccc(-c2nc3ccc([N+](=O)[O-])cc3[nH]2)cc1 | inconclusive: -37%
CC1(C)CC(=O)C(C=Nc2ccc3c(c2)OCO3)=C(O)C1 | inconclusive: -48.6%
COC(=O)CSc1nnc(-c2ccc(OC)cc2OC)o1 | inconclusive: -46.5%
COc1ccc(S(=O)(=O)NCCC(C)C)cc1C | inconclusive: -64.7%
Cc1ccc(C)c(N2CN(Cc3ccco3)CNC2=S)c1 | inactive: -16.8%
CCCCC(=O)NCCc1ccc(OC)cc1 | inconclusive: -40.2%
CCC(CC)NC(=O)c1cc2c(C)nn(Cc3ccccc3Cl)c2s1 | inconclusive: -34.8%
CN(C)C(=O)Oc1cccc([N+](C)(C)C)c1 | inconclusive: -43.2%
COc1ccc(NC(=O)CCCC2CCCCC2)cc1S(=O)(=O)N1CCCCC1 | inconclusive: -35.4%
N#C/C(=C\c1ccccc1)c1nc2ncccc2[nH]1 | inactive: -16.3%
Brc1ccc(-c2nnc(-c3ccccc3Br)o2)cc1 | inactive: 20.1%
COC(=O)c1cc(NC(=O)C2(S(=O)(=O)c3ccc(Cl)cc3)CC2)cc(C(=O)OC)c1 | inconclusive: -56.7%
O=C(NCc1ccco1)c1ccc(COCC(F)(F)F)cc1 | inconclusive: -35.6%
NC(=O)c1sc2nc(N3CCCCC3)c3c(c2c1N)CCCC3 | inactive: -15.7%
CCn1c(SCC(=O)N2CCCCC2C)nc2ccsc2c1=O (configuration not stated) | inconclusive: -46.8%
O/N=C(\COc1ccccc1O)c1ccccc1 | inconclusive: -55.9%
O=S(=O)(NCCc1csc(-c2ccccc2)n1)c1ccc2c(c1)OCCO2 | inconclusive: -43.1%
COc1ccc(CCNC(=O)Cn2c(=O)n(Cc3ccco3)c(=O)c3ccc(Cl)cc32)cc1OC | inactive: -15.2%
NC(=O)NCC12CC3CC(CC(C3)C1)C2 | inconclusive: -54.8%
CCCOc1cc(C)c(S(=O)(=O)N2CCOCC2)cc1C | inconclusive: -67.2%

SMILES | activity change (PNC), negative = inhibition
O=[N+]([O-])c1c(C(Cl)Cl)nn(-c2ccc(Cl)cc2)c1N1CCCCC1 | active: -113%
Cc1ccc(CSC2=NCCN2C(=O)C2CC2)cc1 | inactive: 10.9%
CCc1nnc(NC(=O)CCC(=O)N2CCN(CCOc3ccc(C)cc3)CC2)s1 | inactive: 34.6%
Cc1cccc2cc(C#N)c(N3CCN(C)CC3)nc12 | inactive: -12.3%
CC12CN3CC(C)(CN(C1)C3c1ccc(Cl)cc1Cl)C2=O (configuration not stated) | inconclusive: -33.5%
C#CCn1c(=NC(=O)c2sc3ccccc3c2Cl)sc2cc(S(N)(=O)=O)ccc21 | inactive: 13.3%
O=C(c1ccccc1OCc1ccccc1Br)N1CCN(c2ncccn2)CC1 | inconclusive: -44.3%
O=c1cccccc1NCc1ccccc1 | inconclusive: -66.1%
O=C(NCc1ccncc1)Nc1ccc(F)cc1 | inconclusive: -31.7%
CCN(CC)c1ncnc2sc(C(=O)N3CCN(c4ccccc4)CC3)c(C)c12 | inconclusive: -40.5%
COc1ccc(CNC(=O)C(c2cccs2)N(C(=O)c2csnn2)C2CC2)cc1 (configuration not stated) | inactive: 11.6%
Cn1c(=O)cc(OCCCC(=O)NC2CCCC2)c2ccccc21 | inactive: -13.3%
O=C(O)CSc1nnc(Cc2ccccc2)n1Cc1ccccc1 | inconclusive: -48%
CCOC(=O)c1nn(-c2ccc(Cl)cc2)c2nnc(Cc3ccc(C)cc3)c(=O)n12 | active: -109%
CSc1ccccc1-n1nnnc1SCc1ccccc1 | inconclusive: -39.8%
CC1C(=O)CCCCCCCCCC2C1(N1CCOCC1)CS2(=O)=O (configuration not stated) | inconclusive: -73%
COc1ccc(C(=O)NC(=O)Nc2cc(C)ccn2)cc1 | inconclusive: -35.3%
CCn1c(=O)c([N+](=O)[O-])c(NCC(O)c2ccccc2)c2ccccc21 (configuration not stated) | inconclusive: -35.7%
CCc1nnc(NC(=O)CSc2nc3c(c(=O)n2-c2ccccc2OC)SCC3)s1 | inconclusive: -49.2%
N#CCSc1nnc2sc3ccccc3n12 | inconclusive: -47.9%
CCN(CC)C1=CC(=[N+]2CCCC2)CC(C)(C)C1 | inconclusive: -30.4%
CCCC(=O)Nc1ccc(C(=O)NN=C(C2CC2)C2CC2)cc1 | inconclusive: -52.6%
COC(=O)c1c(CSc2ccc(C)c(C)c2)noc1C(=O)NCc1ccc(OC)cc1 | inactive: 10%

SMILES | activity change (PNC), negative = inhibition
COc1ccccc1N1CC(C(=O)OCC(=O)c2ccc(F)cc2)CC1=O (configuration not stated) | inactive: 57.7%
CCOn1c(=O)c(=O)n(OCc2ccccc2)c2ccccc21 | inconclusive: -33.6%
CCOC(=O)C1C(=O)CC(C)(O)C(C(=O)OCC)C1c1cccc(OC(F)(F)C(F)F)c1 (configuration not stated) | inconclusive: -54.6%
CC1CC(C)CN(S(=O)(=O)c2cccc(C(=O)N3C(=O)c4cccc(N)c4C3=O)c2)C1 (configuration not stated) | inconclusive: -45.5%
Cc1sc(NC(=O)c2cc(-c3ccccc3)nc3ccccc23)c(C(N)=O)c1C | inconclusive: -33.2%
O=C(Nc1ccc(N2CCN(C(=O)c3ccccc3)CC2)c(Cl)c1)c1ccc(Br)o1 | inconclusive: -60.9%
Cc1ccc(NC(=O)c2cc(=O)c3ccccc3o2)c(C)c1 | inconclusive: -56.4%
Cc1ccc(NCc2nc3ccccc3n2C)cc1 | inconclusive: -57.2%
O=C(NCc1ccccc1)N1CCC(n2cnc3cc(F)ccc32)CC1 | inconclusive: -43.1%
Cc1cc(C)n(-c2ccc(C(=O)OCC(=O)Nc3ccc(S(=O)(=O)N4CCOCC4)cc3)cc2)n1 | active: -86.8%
CCN=C1SC(CC(=O)Nc2sc(C)c(C)c2C(=O)OC)C(=O)N1CC (configuration not stated) | inactive: -6.48%
CCN(CC)S(=O)(=O)c1ccc(N2CCCC2)c(NS(=O)(=O)c2ccc(F)cc2)c1 | inconclusive: -35.4%
O=C(/C=C/c1ccccc1)NC(=S)NNC(=O)c1cccnc1 | inactive: 29.6%
Cc1ccccc1NCc1ccccc1O | inconclusive: -52.2%
O=C(CC1CCCCC1)NCc1cn2ccsc2n1 | inactive: 6.47%
Cc1c(/C=N\NC(=O)C2COc3ccccc3O2)c2ccccc2n1C (configuration not stated) | active: -111%
COc1ccc(NC(=O)c2cc(-c3cccs3)on2)cc1OC | inconclusive: -40%
Cc1ccc(-n2c(Cc3cccn3C)nnc2SCC(=O)NC2CCCCC2)cc1 | inactive: -23.4%
CCN(CC)C(=O)CSc1nsc(SCC(=O)N(CC)CC)c1C#N | inactive: 20.1%
Clc1ccc(SCc2cn3cccnc3n2)cc1 | inconclusive: -57.2%
O=C1c2ccccc2NC(c2cnc3ccccc3n2)N1O (configuration not stated) | inconclusive: -32.5%
COc1ccc(CNC(=O)CN(Cc2ccc(C)cc2)S(=O)(=O)c2ccc(Cl)cc2)cc1 | inconclusive: -58%
O=C1NC(=NCc2ccccc2)S/C1=C\c1ccccc1 | inactive: -27%
